The text below walks through data of publication PMC7817837.

Protein sequences, listed by entry. Tags and fused reporters are not part of them. Lines headed by an entry give the natural chain unless they say otherwise; changes in a name come on top.
UniProt Q96D31: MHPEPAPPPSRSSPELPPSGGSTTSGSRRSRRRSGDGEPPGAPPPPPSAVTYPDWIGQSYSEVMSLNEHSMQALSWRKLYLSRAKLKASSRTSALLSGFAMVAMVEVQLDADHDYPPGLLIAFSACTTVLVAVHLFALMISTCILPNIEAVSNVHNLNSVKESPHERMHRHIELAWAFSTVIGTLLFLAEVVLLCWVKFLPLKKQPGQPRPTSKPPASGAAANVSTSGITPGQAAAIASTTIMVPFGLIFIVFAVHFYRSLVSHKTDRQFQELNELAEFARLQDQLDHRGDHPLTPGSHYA
UniProt P15311: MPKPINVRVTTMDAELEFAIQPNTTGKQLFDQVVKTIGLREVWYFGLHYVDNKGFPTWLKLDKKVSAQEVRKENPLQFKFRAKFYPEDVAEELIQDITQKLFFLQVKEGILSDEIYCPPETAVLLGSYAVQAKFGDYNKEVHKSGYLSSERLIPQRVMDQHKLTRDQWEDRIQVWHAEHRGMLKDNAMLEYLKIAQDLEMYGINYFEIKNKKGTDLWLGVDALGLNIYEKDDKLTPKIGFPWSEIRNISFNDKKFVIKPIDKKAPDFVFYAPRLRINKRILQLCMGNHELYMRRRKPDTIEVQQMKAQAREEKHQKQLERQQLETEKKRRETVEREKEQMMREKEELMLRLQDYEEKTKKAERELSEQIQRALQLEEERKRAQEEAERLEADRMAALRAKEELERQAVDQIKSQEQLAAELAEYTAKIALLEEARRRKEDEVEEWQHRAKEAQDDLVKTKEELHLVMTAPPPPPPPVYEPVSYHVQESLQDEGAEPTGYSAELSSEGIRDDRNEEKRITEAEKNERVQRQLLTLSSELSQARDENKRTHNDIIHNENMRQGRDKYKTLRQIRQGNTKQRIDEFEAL

In this experiment the target is Orai1-HA (UniProt Q96D31). The experiment in a line: co-IP; STIM1-FLAG and Orai1-HA co-expressed with GFP or GFP-ezrin (T567E, graded expression); lysate in IP buffer (20 mM Tris-HCl pH 7.5, 150 mM NaCl, 1% Triton X-100, protease inhibitors); anti-DYKDDDDK mAb beads, 2 h; immunoblot with anti-FLAG, anti-HA and anti-GFP. (Immunoblotting shows a protein as a band on a membrane.)

Results are given in words; binding and its absence hold for the method and conditions named. In cells and extracts the contact can be indirect. Some entries that bind do so weakly or less than the wild type.

As for “GFP-ezrin T567E (from UniProt P15311 1-586)”, the binding entry is on record as “binds”.
